Test results as given in PubChem BioAssay AID2685 (National Center for Advancing Translational Sciences (NCATS), 2010).
This is one part of the list. Shown are side measurements of this screen, not its main read-out; they come without a call. Compounds called inactive in the main read-out are mostly missing here. The note in brackets gives the kind of curve behind each potency; many fits are weak.

Test: qHTS Assay for Lipid Storage Modulators in Drosophila S3 Cells;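 as to cell number change: cells counted by Cell Tracker Red CMTPX staining in the red channel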
Details: BODIPY lipid droplet fluorescence, 18-24 h; for cell number change: measured here: cell count max response, cells fed with added oleic acid
Outline: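 Drosophila S3 cells got compounds at several concentrations plus oleic acid (400 uM solution). Laser-scanning cytometry with 488 nm excitation read lipid droplets at 500-530 nm and cells at 575-640 nm. Percent activity was relative to 20 uM Triacsin C.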

[1] = measured here: cell number channel AC50, cells fed with added oleic acid
[2] = measured here: lipid fluorescence (Fed channel) AC50, cells fed with added oleic acid

O=C(c1cccc2ccccc12)N1CCN(c2ccccc2F)CC1
cell number change: 4.23%
AC50 [1]: 2.59 µM [rising, partial curve]

CCOC(=O)/C=c1\s/c(=C\c2ccc3c(c2)OCCO3)c(=O)n1CC(=O)NCC1CCCO1 (stereo not given)
AC50 [1]: 3.26 µM [rising, partial curve]
AC50 [2]: 18.4 µM [rising, partial curve]

N#Cc1ccc(-c2ccc(OCC(O)Cn3nnc4ccccc43)cc2)cc1 (stereo not given)
cell number change: 2.03%
AC50 [2]: 29.1 µM [falling, single point]

COc1ccc(N2C(=O)CC(C)(C)CC2=O)cc1OC
cell number change: 23.6%
AC50 [2]: 11.6 µM [falling, single point]

CN(c1ccccc1)c1ccc(/C=C(\CCC(=O)O)c2nc3ccccc3s2)cc1[N+](=O)[O-]
AC50 [1]: 0.58 µM [falling, single point]
AC50 [2]: 16.4 µM [rising, partial curve]

COc1c(OC(C)=O)ccc(/C=C/c2ccc3cccc(OC)c3n2)c1[N+](=O)[O-]
cell number change: -40%
AC50 [1]: 18.4 µM [falling, partial curve]
AC50 [2]: 18.4 µM [falling, single point]

CCCN(CC(=O)Nc1ccc(Cl)cc1Cl)C(=O)CC(NC(C)=O)c1ccccc1 (stereo not given)
cell number change: -5.95%
AC50 [2]: 0.58 µM [falling, single point]

Cn1c(=O)c2ccccc2n(Cc2ccccc2F)c1=O
cell number change: -11.8%
AC50 [2]: 7.31 µM [rising, partial curve]

O=C(CCN1C(=O)/C(=C/c2ccc(F)cc2)SC1=S)NC1C=CS(=O)(=O)C1 (stereo not given)
AC50 [2]: 0.116 µM [rising, single point]

CCC[n+]1c(C)sc2c3c(ccc21)CCCC3
cell number change: -43.4%
AC50 [1]: 6.51 µM [falling, partial curve, poor fit]
AC50 [2]: 2.91 µM [falling, single point]

O=C(N/N=C/c1ccnc2ccccc12)c1ccccc1O
cell number change: -27.7%

O=C(CN1C(=O)C2C3C=CC(C3)C2C1=O)NCCc1ccccc1 (stereo not given)
cell number change: 76.5%

COc1ccc(/C=N/NC(=O)Cn2cnc3ccccc3c2=O)cc1
cell number change: -3.45%
AC50 [2]: 5.8 µM [falling, partial curve]

COc1ccc(OC)c(C(=O)COC(=O)c2[nH]c(C)c(C(C)=O)c2C)c1
cell number change: -22.9%

CCCC(=O)Oc1ccc2c(C)cc(=O)oc2c1
cell number change: -10.4%
AC50 [2]: 2.59 µM [falling, partial curve]

Cn1c(CCNC(=O)c2ccco2)nc2cc([N+](=O)[O-])ccc21
cell number change: 6.45%

COc1ccc(C(=O)CCC(=O)N2CCN(c3ccc(C)cc3)C(C)C2)cc1 (stereo not given)
cell number change: 33.1%
AC50 [1]: 18.4 µM [rising, single point]

Cc1ccc(NS(=O)(=O)c2ccc3c(c2)NC(=O)CCS3)cc1F
cell number change: -3.44%
AC50 [2]: 29.1 µM [rising, single point]

O=C(O)CCN1C(=O)CC(N2C(=O)/C(=C/c3ccc(Cl)cc3)SC2=S)C1=O (stereo not given)
cell number change: -4.56%

O=C(CNCCO)Nc1ccc(F)c(Cl)c1
cell number change: -21%
AC50 [2]: 1.03 µM [falling, partial curve]

COc1cc2ncnc(NCc3ccccc3Cl)c2cc1OC
cell number change: -45%
AC50 [1]: 4.61 µM [falling, full curve, poor fit]
AC50 [2]: 4.61 µM [falling, full curve]

FC(F)(F)c1cnc(Nc2ccc(N3CCOCC3)cc2)c(Cl)c1
cell number change: -8.41%
AC50 [2]: 2.91 µM [falling, partial curve]

Cc1ccc(S(=O)(=O)NCC(=O)OCc2ccccc2)cc1
cell number change: 13.4%

O=C(O)CSc1ccc2nnc(-c3cccnc3)n2n1
AC50 [1]: 0.517 µM [rising, partial curve, poor fit]
AC50 [2]: 0.651 µM [rising, partial curve]

Cc1cccc(N2C(=O)CS/C2=N\NC(=O)c2ccc(Br)cc2)c1C
cell number change: 29.8%
AC50 [2]: 29.1 µM [rising, single point]

CN(C)c1ccc(CN(Cc2ccco2)C(=O)c2ccco2)cc1
cell number change: -4.59%
AC50 [2]: 0.00461 µM [falling, full curve, poor fit]

CCc1cc2c(cc3c(=O)n(CC(=O)N4CCN(C)CC4)ncn32)s1
cell number change: -2.06%
AC50 [2]: 4.11 µM [falling, single point]

COc1ccccc1-n1cc(C(=O)NCC(=O)NCc2ccc(F)cc2)c2ccccc2c1=O
AC50 [2]: 2.91 µM [rising, single point]

Cc1nc(C(=O)N(C)C)nn1-c1cc(Cl)ccc1Cl
cell number change: -64.7%
AC50 [1]: 20.6 µM [falling, partial curve, poor fit]
AC50 [2]: 20.6 µM [falling, single point]

COc1cccc(C(CNc2ccc(S(=O)(=O)N3CCN(C)CC3)cc2[N+](=O)[O-])N(C)C)c1 (stereo not given)
cell number change: -19.1%
AC50 [2]: 6.51 µM [rising, single point]

COc1ccccc1Nc1nc(N)nc(CN2CCN(c3ccccc3F)CC2)n1
AC50 [1]: 6.51 µM [rising, single point]
AC50 [2]: 6.51 µM [rising, single point]

Cc1ccc(C(=O)OCc2cn(-c3ccccc3)nn2)cc1
cell number change: 30.9%
AC50 [1]: 0.0164 µM [rising, full curve, poor fit]

CCC(c1nnnn1Cc1ccco1)N1CCC(C(N)=O)CC1 (stereo not given)
AC50 [2]: 29.1 µM [falling, single point]

COc1cccc(/C=C/C(=O)OCC(=O)Nc2ccc(Cl)c(S(=O)(=O)N(C)C)c2)c1OC
cell number change: 26.4%
AC50 [2]: 0.58 µM [rising, single point]

CCNc1nc(SC(C)C(=O)Nc2ccccc2)nc(N2CCOCC2)n1 (stereo not given)
cell number change: -29.3%
AC50 [2]: 16.4 µM [falling, single point]

COc1cccc(CN(CC2CCCO2)C(=O)c2cc3ccccc3oc2=O)c1 (stereo not given)
cell number change: 16.3%

CN1CCN(S(=O)(=O)c2ccc3c(c2)NC(=O)CS3)CC1
cell number change: -22.1%
AC50 [2]: 6.51 µM [falling, single point]

COc1cccc(-c2nc(NC(C)(C)C)c3ccccc3n2)c1O
cell number change: -30%
AC50 [1]: 10.3 µM [falling, partial curve]
AC50 [2]: 0.00411 µM [rising, full curve, poor fit]

O=C(CN1CCN(S(=O)(=O)c2ccc(Cl)cc2)CC1)NCC1(N2CCOCC2)CCCCC1
cell number change: -9.87%
AC50 [1]: 1.64 µM [rising, single point]
AC50 [2]: 5.8 µM [falling, full curve, poor fit]

COc1ccccc1NS(=O)(=O)c1cccc(C(=O)NC2CCN(Cc3ccccc3)CC2)c1
cell number change: -32.8%
AC50 [1]: 5.8 µM [falling, partial curve, poor fit]
AC50 [2]: 4.11 µM [falling, partial curve, poor fit]

CC1CCN(CCCNC(=O)c2ccc(Cn3c(=S)[nH]c4ccc(Br)cc4c3=O)cc2)CC1
cell number change: 5.29%
AC50 [1]: 2.59 µM [rising, single point]

COc1ccc(S(=O)(=O)CCC(=O)N2CCN(c3ccc(F)cc3)CC2)cc1
cell number change: 33%

CCn1c(SCC(=O)Nc2ccc(NC(=O)c3ccco3)c(OC)c2)nc2ccccc2c1=O
cell number change: -32.2%

CCOC(=O)CNC(=O)CSc1nnc(SCC(=O)NCC(=O)OCC)s1
cell number change: -21.7%

CC(C)(C)c1ccc(C(=O)NNC(=O)CCC(=O)Nc2ccccc2)cc1
cell number change: 24.6%
AC50 [2]: 5.8 µM [rising, full curve, poor fit]

Cc1cccc(NC(=S)N/N=C/c2ccc([N+](=O)[O-])s2)c1
cell number change: -29.3%
AC50 [2]: 16.4 µM [falling, partial curve]

CCC(C(=O)NCc1ccccc1OC)c1ccccc1 (stereo not given)
cell number change: 24.7%
AC50 [1]: 3.26 µM [rising, partial curve]
AC50 [2]: 2.31 µM [rising, partial curve]

COc1ccc(CN2CC(=O)N(c3cc(Cl)ccc3C)C2=S)cc1OC
cell number change: -16.9%
AC50 [2]: 29.1 µM [falling, single point]

CCC(CC)c1nnc(NC(=O)CCCN2C(=O)c3ccccc3C2=O)s1
cell number change: 36.9%
AC50 [1]: 0.103 µM [rising, full curve, poor fit]

COn1c(SCC(=O)N(C)C)nc2ccccc2c1=O
cell number change: -7.6%

COc1ccc(CCNC(=O)CSc2nnc(NC(C)=O)s2)cc1OC
cell number change: -10.5%
AC50 [1]: 0.0058 µM [falling, full curve, poor fit]

C=CCNC(=S)Nc1sc2c(c1C#N)CCCC2
cell number change: 7.48%
AC50 [2]: 0.0461 µM [rising, single point]

O=S(=O)(Nc1cc(C(F)(F)F)ccc1N1CCOCC1)c1ccccc1
cell number change: 21.8%
AC50 [1]: 3.26 µM [falling, single point]
AC50 [2]: 5.8 µM [falling, single point]

CC1CCN(C(=O)CSc2nc3c(c(=O)n(C)c(=O)n3C)n2C)CC1
cell number change: 18.9%
AC50 [2]: 6.51 µM [falling, single point]

COc1ccccc1S(=O)Cc1ccc(C(=O)NC2CCCC2)o1 (stereo not given)
cell number change: 53.3%
AC50 [1]: 1.46 µM [rising, full curve]
AC50 [2]: 1.46 µM [rising, partial curve]

COCc1[nH]nc2c1C1(C(=O)Nc3ccc(F)cc31)C(C#N)=C(N)O2 (stereo not given)
cell number change: 28.2%
AC50 [2]: 0.13 µM [rising, full curve]

Cc1cccc(C(=O)NCC(=O)OCc2nnc(-c3ccccc3)o2)c1
cell number change: 23.8%
AC50 [2]: 16.4 µM [rising, single point]

CCOC(=O)CSC1=C(C#N)C(c2ccccc2Cl)C(C(=O)OC)C(=O)N1 (stereo not given)
cell number change: 8.99%
AC50 [2]: 0.0517 µM [rising, full curve, poor fit]

CC(C)C[C@]1(c2ccccc2)ON(c2ccccc2C(F)(F)F)C1=O
cell number change: -82.3%
AC50 [1]: 29.1 µM [falling, single point]
AC50 [2]: 13 µM [falling, single point]
